Compound in the test: Cc1nc(Nc2ncc(C(=O)Nc3c(C)cccc3Cl)s2)cc(N2CCN(CCO)CC2)n1 [dasatinib]
The experiment in a line: log2 fold change of tryptic peptide abundance, ligand vs vehicle (limited proteolysis) (log2 ratio); higher = more trypsin-susceptible (destabilized). The settings on record: ligand concentration: 5 uM; sample: K562 cleared lysate.

Protein sequences, listed by entry. Tags and fused reporters are not part of them. Lines headed by an entry give the natural chain unless they say otherwise; changes in a name come on top.
UniProt Q6P6C2: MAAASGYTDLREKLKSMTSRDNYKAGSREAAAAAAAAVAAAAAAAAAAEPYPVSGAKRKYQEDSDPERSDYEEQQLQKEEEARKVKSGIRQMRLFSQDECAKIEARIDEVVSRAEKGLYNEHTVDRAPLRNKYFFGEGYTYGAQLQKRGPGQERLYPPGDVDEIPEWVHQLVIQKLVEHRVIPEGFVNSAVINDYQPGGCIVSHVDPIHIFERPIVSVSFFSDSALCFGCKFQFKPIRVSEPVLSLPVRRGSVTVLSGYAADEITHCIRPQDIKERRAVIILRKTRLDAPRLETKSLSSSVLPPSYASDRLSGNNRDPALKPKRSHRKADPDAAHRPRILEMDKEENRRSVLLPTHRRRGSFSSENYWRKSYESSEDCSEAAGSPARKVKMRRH
UniProt Q6MZP7: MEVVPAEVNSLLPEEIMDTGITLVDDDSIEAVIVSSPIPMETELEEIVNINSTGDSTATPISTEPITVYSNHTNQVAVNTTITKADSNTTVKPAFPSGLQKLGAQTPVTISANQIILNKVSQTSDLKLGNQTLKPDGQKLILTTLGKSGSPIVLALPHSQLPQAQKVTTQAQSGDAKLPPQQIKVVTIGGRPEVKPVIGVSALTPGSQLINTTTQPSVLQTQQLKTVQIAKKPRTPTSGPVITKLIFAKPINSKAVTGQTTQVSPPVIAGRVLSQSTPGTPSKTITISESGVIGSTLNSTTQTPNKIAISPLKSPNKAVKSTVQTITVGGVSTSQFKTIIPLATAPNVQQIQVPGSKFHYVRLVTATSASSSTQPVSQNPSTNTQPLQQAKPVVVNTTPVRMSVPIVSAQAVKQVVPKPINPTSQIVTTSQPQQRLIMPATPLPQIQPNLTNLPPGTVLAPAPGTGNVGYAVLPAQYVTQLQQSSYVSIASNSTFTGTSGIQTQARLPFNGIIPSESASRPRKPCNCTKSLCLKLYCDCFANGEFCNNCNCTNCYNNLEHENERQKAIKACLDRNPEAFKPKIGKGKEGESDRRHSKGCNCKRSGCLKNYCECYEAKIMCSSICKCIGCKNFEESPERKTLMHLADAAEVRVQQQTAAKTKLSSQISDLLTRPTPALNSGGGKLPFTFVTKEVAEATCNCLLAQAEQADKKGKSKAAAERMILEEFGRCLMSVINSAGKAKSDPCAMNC
UniProt Q5VWQ8: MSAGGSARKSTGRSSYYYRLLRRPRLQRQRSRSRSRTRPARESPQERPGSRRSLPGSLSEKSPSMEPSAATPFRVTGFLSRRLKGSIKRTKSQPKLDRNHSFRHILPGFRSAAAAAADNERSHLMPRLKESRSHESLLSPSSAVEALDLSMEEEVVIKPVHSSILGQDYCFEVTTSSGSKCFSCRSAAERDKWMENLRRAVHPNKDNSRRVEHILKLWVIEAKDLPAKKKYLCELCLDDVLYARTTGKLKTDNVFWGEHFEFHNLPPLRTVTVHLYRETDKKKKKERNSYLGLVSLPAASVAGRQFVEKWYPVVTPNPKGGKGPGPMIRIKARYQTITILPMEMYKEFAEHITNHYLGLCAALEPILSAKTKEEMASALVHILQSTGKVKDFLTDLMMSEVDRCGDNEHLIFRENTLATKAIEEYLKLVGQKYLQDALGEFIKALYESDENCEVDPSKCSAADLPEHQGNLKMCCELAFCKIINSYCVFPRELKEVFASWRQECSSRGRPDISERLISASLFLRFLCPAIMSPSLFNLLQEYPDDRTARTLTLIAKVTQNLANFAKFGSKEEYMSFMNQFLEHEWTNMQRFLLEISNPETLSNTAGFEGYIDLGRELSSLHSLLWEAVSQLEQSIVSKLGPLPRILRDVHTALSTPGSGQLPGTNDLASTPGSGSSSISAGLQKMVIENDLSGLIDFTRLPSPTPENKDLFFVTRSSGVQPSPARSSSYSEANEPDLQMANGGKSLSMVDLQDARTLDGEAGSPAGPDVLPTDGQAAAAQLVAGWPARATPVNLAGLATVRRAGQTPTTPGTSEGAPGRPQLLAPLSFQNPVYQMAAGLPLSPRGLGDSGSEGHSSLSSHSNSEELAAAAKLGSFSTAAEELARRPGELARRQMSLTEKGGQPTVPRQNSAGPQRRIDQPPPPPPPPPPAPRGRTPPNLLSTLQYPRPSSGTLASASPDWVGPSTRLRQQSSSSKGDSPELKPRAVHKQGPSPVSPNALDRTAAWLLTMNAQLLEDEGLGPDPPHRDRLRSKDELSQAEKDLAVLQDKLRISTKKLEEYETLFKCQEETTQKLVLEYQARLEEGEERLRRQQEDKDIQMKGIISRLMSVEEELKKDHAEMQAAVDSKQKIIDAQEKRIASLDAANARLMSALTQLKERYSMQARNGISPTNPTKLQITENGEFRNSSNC
UniProt Q6PJ61: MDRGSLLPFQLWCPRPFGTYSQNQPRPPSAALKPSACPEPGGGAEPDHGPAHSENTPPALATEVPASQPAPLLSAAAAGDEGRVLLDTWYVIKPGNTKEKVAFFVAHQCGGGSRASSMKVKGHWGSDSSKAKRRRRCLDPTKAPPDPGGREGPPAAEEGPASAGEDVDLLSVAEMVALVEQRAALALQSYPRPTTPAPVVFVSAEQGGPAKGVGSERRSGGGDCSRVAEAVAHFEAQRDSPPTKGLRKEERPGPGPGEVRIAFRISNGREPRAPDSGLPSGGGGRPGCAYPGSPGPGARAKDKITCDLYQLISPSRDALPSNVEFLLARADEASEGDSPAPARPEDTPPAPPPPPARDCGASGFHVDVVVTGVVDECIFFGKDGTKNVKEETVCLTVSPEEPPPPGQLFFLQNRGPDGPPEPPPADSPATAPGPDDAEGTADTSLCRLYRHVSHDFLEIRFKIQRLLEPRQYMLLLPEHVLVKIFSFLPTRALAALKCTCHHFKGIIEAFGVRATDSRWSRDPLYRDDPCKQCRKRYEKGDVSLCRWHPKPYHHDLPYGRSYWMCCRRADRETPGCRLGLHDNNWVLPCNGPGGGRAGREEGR
UniProt Q6P1L5: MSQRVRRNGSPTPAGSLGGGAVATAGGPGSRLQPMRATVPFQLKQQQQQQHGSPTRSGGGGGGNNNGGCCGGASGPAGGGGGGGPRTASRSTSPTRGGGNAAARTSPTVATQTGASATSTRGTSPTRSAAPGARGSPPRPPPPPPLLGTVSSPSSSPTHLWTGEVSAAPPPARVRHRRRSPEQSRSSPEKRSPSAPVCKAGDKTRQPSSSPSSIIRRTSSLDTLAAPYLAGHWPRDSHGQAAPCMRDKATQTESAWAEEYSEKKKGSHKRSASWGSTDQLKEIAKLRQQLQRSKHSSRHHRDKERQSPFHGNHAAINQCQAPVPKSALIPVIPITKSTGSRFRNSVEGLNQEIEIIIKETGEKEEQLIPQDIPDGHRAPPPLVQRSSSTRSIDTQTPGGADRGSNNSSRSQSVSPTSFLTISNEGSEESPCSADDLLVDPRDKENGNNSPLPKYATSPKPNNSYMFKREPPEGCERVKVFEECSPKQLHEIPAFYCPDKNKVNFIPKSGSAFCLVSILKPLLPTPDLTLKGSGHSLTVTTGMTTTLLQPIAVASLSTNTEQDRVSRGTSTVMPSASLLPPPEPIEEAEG
UniProt Q68CP9, whole entry: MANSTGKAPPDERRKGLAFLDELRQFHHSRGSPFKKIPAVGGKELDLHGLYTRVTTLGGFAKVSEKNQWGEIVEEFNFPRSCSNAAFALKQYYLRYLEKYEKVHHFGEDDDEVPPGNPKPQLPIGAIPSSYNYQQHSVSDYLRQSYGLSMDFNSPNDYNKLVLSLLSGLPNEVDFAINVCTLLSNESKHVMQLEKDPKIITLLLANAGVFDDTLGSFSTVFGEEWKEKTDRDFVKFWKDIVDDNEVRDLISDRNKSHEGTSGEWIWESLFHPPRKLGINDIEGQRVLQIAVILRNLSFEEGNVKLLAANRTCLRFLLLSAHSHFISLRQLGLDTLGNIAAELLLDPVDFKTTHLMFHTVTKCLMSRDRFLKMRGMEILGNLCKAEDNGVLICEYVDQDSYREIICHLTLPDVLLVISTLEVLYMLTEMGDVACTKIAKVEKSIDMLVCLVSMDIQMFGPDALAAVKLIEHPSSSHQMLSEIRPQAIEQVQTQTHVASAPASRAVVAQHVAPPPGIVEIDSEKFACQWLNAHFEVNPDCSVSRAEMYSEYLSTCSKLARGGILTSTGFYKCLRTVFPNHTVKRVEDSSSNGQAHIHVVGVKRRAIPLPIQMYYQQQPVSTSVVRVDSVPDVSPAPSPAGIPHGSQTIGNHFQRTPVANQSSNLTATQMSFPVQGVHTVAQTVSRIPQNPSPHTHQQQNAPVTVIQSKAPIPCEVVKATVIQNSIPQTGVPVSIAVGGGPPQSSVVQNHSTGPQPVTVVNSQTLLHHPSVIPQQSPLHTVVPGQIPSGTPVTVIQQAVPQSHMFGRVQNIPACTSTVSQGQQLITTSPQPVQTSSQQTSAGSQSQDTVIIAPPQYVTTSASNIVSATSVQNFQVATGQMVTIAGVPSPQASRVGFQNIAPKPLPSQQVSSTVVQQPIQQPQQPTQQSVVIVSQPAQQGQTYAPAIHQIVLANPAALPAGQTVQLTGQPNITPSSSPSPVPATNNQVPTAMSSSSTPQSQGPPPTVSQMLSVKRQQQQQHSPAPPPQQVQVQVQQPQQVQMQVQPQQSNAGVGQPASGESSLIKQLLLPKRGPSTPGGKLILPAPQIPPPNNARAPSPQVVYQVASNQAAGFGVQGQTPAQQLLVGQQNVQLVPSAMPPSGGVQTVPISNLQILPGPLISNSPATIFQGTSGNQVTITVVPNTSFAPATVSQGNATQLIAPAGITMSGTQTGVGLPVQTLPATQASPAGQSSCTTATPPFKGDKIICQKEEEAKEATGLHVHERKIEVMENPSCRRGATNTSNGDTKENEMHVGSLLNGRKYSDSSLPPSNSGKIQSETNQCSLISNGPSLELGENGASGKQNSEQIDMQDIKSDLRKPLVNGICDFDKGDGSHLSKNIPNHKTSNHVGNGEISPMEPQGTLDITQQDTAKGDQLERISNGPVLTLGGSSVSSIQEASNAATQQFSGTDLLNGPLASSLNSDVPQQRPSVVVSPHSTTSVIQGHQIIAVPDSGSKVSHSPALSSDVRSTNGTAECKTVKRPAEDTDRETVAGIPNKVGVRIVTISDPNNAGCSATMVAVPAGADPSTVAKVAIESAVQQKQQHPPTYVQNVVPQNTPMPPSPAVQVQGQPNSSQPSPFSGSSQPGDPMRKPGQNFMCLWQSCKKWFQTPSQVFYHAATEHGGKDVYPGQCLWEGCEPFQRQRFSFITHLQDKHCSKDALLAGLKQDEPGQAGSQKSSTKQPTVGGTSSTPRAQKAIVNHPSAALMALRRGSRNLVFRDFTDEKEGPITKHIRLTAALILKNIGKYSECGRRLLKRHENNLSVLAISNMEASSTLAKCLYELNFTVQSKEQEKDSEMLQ
UniProt Q6P5X5: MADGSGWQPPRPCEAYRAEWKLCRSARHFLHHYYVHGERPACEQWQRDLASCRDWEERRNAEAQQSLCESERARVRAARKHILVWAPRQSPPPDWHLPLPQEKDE
UniProt Q6PIF2: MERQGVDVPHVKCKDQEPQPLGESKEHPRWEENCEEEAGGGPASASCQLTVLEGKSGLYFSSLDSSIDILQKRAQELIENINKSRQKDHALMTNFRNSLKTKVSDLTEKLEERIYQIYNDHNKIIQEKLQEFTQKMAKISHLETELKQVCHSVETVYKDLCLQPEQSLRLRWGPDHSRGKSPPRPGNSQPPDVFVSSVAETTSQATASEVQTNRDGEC
UniProt Q5VV41: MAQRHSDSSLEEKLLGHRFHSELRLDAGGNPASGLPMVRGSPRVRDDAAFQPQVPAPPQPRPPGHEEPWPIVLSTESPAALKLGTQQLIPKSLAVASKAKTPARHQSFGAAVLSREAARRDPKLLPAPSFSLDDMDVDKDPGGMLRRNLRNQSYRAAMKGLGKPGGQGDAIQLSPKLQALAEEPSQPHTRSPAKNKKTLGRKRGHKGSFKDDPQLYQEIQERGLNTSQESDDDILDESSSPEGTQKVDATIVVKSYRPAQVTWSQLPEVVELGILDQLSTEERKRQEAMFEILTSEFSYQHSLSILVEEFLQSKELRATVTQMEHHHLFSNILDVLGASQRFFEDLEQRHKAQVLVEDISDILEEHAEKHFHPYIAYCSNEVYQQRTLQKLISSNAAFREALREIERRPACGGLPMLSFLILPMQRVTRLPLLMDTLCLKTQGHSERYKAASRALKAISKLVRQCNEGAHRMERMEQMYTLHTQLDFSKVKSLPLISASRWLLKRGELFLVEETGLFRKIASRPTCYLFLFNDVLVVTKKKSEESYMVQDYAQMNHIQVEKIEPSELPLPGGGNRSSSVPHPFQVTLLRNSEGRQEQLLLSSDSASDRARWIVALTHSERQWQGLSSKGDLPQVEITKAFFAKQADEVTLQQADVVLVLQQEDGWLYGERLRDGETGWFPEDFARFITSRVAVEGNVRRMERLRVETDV
UniProt Q6PI98, whole entry: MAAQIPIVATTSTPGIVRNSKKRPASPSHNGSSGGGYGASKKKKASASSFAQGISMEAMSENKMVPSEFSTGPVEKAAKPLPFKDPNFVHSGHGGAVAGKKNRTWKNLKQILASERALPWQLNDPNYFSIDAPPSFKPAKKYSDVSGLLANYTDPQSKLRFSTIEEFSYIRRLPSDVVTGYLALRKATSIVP

The other results are listed elsewhere or left out. Small differences around the control level are noise.

For the target “ALKBH5 (peptide sequence: SVLLPTHR, peptide start residue: 350) (UniProt Q6P6C2)”, the log2 fold change was -0.196.

Take “LIN54 (peptide sequence: ADSNTTVKPAFPSGLQK, peptide start residue: 85) (UniProt Q6MZP7)”: the log2 fold change is -0.322.

Consider “DUS1L (peptide sequence: CVFSLCRGCCK, peptide start residue: 406) (UniProt Q6P1R4)”, for which the log2 fold change is -0.271.

With “DAB2IP (peptide sequence: AVHPNKDNSR, peptide start residue: 200) (UniProt Q5VWQ8)”, the log2 fold change was determined as 0.175.

For “UniProt Q6ICG6 (peptide sequence: NNRPAFFSPSLKR, peptide start residue: 297)”, the log2 fold change was found to be 0.404.

For the target “UniProt Q6P1J9 (peptide sequence: TDLDDDITALK, peptide start residue: 199)”, the log2 fold change was 0.0705.

“DARS2 (peptide sequence: YILATLLKEDVK, peptide start residue: 551) (UniProt Q6PI48)”: the log2 fold change was determined as 0.173.

As for “FBXO46 (peptide sequence: WHPKPYHHDLPYGR, peptide start residue: 547) (UniProt Q6PJ61)”, the log2 fold change is 0.471.

As for “KLHL17 (peptide sequence: QARPAAPMEGAVQLLSR, peptide start residue: 46) (UniProt Q6TDP4)”, the log2 fold change came out at 0.275.

For “CORO6 (peptide sequence: KCEPIIMTVPR, peptide start residue: 342) (UniProt Q6QEF8)”, the log2 fold change was found to be 0.108.

As for “E4F1 (peptide sequence: ENLLHQAMQNSGIVLER, peptide start residue: 368) (UniProt Q66K89)”, the log2 fold change stood at 0.229.

As to “LARP1 (peptide sequence: HKWVPLQIDMKPEVPR, peptide start residue: 250) (UniProt Q6PKG0)”, the log2 fold change is -0.244.

Take “RFWD3 (peptide sequence: LHGMLEFLRPSSSNHSVGPMR, peptide start residue: 130) (UniProt Q6PCD5)”: the log2 fold change was -0.348.

For “UniProt Q6EKJ0 (peptide sequence: EQVNDLFSR, peptide start residue: 870)”, the log2 fold change amounted to 0.0247.

With “UniProt Q69YQ0 (peptide sequence: STSTGNKESSSTR, peptide start residue: 111)”, the log2 fold change was found to be 1.04.

For “CWF19L1 (peptide sequence: IKKNFPLQFGR, peptide start residue: 481) (UniProt Q69YN2)”, the log2 fold change was -0.746.

“FAM117B (peptide sequence: SASWGSTDQLK, peptide start residue: 271) (UniProt Q6P1L5)”: the log2 fold change was -0.238.

As to “RPUSD3 (peptide sequence: LEHIDGVNLTVPVKAPSR, peptide start residue: 192) (UniProt Q6P087)”, the log2 fold change was -0.485.

For “PPP2R2D (peptide sequence: VPILKPMDLMVEASPR, peptide start residue: 160) (UniProt Q66LE6)”, the log2 fold change is -0.355.

Consider “ARID2 (peptide sequence: IPQNPSPHTHQQQNAPVTVIQSK, peptide start residue: 684) (UniProt Q68CP9)”, for which the log2 fold change came out at 0.189.

Regarding “C22orf39 (peptide sequence: DLASCRDWEER, peptide start residue: 85) (UniProt Q6P5X5)”, the log2 fold change was -0.111.

For “UniProt Q6IE81 (peptide sequence: NPLEPFASLEQNREEAHR, peptide start residue: 395)”, the log2 fold change is -0.621.

For the target “WDR73 (peptide sequence: GVFVAGYESLKK, peptide start residue: 37) (UniProt Q6P4I2)”, the log2 fold change was -0.734.

On to “HEATR6 (peptide sequence: SAAALSVPGKR, peptide start residue: 1020) (UniProt Q6AI08)”, for which the log2 fold change was -0.281.

As to “UniProt Q68CQ4 (peptide sequence: DLFYPER, peptide start residue: 291)”, the log2 fold change came out at 0.183.

“FAM91A1 (peptide sequence: LKSTLDPQK, peptide start residue: 320) (UniProt Q658Y4)”: the log2 fold change was -0.487.

Consider “TMED8 (peptide sequence: ATGPLEAQALVK, peptide start residue: 84) (UniProt Q6PL24)”, for which the log2 fold change is -0.0886.

Take “SYCE2 (peptide sequence: ISHLETELK, peptide start residue: 139) (UniProt Q6PIF2)”: the log2 fold change was 0.28.

As for “UniProt Q6NVV7 (peptide sequence: LVCVGPECSLFYSKR, peptide start residue: 70)”, the log2 fold change was 0.25.

Turning to “UniProt Q5VYK3 (peptide sequence: LHLVESLLSRIPSSK, peptide start residue: 838)”, the log2 fold change is -0.388.

As to “UniProt Q6P2H3 (peptide sequence: ELLIDKQR, peptide start residue: 341)”, the log2 fold change was -0.362.

With “ARHGEF16 (peptide sequence: GLGKPGGQGDAIQLSPK, peptide start residue: 160) (UniProt Q5VV41)”, the log2 fold change is -0.0954.

Turning to “CDCA2 (peptide sequence: KDDFLGAAEGK, peptide start residue: 766) (UniProt Q69YH5)”, the log2 fold change is 0.263.

For “INO80C (peptide sequence: KYSDVSGLLANYTDPQSK, peptide start residue: 141) (UniProt Q6PI98)”, the log2 fold change is -0.656.

Consider “AAGAB (peptide sequence: AATLPHEQR, peptide start residue: 276) (UniProt Q6PD74)”, for which the log2 fold change is 0.0798.

Regarding “UniProt Q6GYQ0 (peptide sequence: DLPDILNK, peptide start residue: 870)”, the log2 fold change was -0.211.

As to “ZNF280D (peptide sequence: SPSVTSSQAMLAK, peptide start residue: 211) (UniProt Q6N043)”, the log2 fold change worked out at 0.282.
